In patent US20130217865A1:
These are yes or no findings as the source states them, for the method shown. Some entries that bind do so weakly or less than the wild type.

How the values were obtained:
[1] = target: T1, recombinant alpha-fetoprotein (AFP), 67 kDa, from RDI (UniProt P02771); test: SDS-PAGE / Western blot
T1 sequence (looked up): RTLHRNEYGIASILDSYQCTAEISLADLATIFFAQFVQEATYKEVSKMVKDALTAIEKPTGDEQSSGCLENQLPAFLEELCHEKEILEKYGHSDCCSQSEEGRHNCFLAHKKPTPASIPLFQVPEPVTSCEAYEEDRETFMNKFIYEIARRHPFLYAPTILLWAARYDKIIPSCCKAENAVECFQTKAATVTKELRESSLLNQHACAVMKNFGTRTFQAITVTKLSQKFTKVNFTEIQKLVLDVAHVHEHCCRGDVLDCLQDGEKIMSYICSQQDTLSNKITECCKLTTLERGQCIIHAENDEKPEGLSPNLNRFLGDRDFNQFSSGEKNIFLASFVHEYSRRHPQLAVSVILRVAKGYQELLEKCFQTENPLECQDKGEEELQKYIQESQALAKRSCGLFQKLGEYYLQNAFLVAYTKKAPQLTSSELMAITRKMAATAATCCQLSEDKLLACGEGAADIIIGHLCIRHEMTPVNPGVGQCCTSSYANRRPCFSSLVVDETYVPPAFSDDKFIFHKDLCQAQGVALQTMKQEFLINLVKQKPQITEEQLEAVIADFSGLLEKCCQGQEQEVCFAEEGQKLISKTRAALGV

[2] = target: T1, recombinant alpha-fetoprotein (AFP), 67 kDa, from RDI; test: Western blot of recombinant AFP probed with VB1-008 (FIG. 15A)
[3] = target: T1, recombinant alpha-fetoprotein (AFP), 67 kDa, from RDI; test: SDS-PAGE / Western blot of 0.3 µg recombinant AFP probed with VB1-008

Measured: binding

B1: VB1-008 monoclonal antibody (antibody, human IgG1, V domains shown)
VH: QVQLQELGPRLVRPSQTLILTCTVSGGSVSGDEYYWSWLRQTPGKGLEWIGYMSYRGSSYYSPSLQSRVTIAVDRSKNEFSLKLTSVTAADAAVYFCARKYCGGDCRSGFDIWGRGTMVTVAS
VL: YELTQPPSVSVSPGQKAFITCSGDNLGNKYVCWYQQKPGQSPVLVIYEDTKRPSGIPERFSASNSGNTATLTISGTQPIDEADYYCQAWDSRTEIFGTGTKVTVLS
binds: all assays above
